Experimental findings from the supplement of paper PMC7238544 are described below.

The test system of test [1] is hAMSC donor 1. Briefly: Hoechst total cell count ratio vs vehicle control; higher = more cells (less toxicity).
The test system of test [2] is hAMSC donor 2. The test is described as above.
Test [3] deals with hAMSC donor 1. Kind of test: transgenic luciferase activity (RLU/mg protein) fold change vs vehicle control (ratio); higher = more transgene expression.
In test [4] the test system is hAMSC donor 2. The description is as above.
Test [5] concerns hAMSC donor 1. Kind of test: transfection efficiency (EGFP+ cells / Hoechst count) fold change vs vehicle control (ratio); hAMSC are human adipose-derived mesenchymal stem cells given an EGFP-luciferase plasmid by lipofection; higher = enhanced transfection.
For test [6], the system named is hAMSC donor 2. The test is described as above.
Setting [7] is: priming compound concentration 0.2 µM.
[8] abbreviates: priming compound concentration 1.7 µM.
[9] abbreviates: priming compound concentration 13 µM.

Molecules are shown by their SMILES. Counter-ions that a name gives are not always drawn. ± gives the standard deviation of the averaged measurements. The list shows a part of the results. The data scatter; read single values as rough.

For `C[N+](C)(C)C[C@H](O)CC(=O)[O-]` [L-Carnitine inner salt], the “Hoechst total cell count ratio” value came to 1.35 ± 0.044 with hAMSC donor 1 [1] (setting [7]); 1.24 ± 0.027 in the test with hAMSC donor 1 [1] (setting [8]); 1.22 ± 0.034 with hAMSC donor 1 [1] (setting [9]); 1.1 ± 0.035 with hAMSC donor 2 [2] (setting [7]); 1.09 ± 0.098 with hAMSC donor 2 [2] (setting [8]); 1.17 ± 0.22 in the test on hAMSC donor 2 [2] (setting [9]). The transgenic luciferase activity came out at 0.255 ± 0.058 in the test with hAMSC donor 1 [3] (setting [8]); 1.09 ± 0.46 in the test with hAMSC donor 1 [3] (setting [9]); 0.924 ± 0.19 in the test with hAMSC donor 2 [4] (setting [7]); 0.905 ± 0.17 with hAMSC donor 2 [4] (setting [8]); 0.784 ± 0.052 in the test with hAMSC donor 2 [4] (setting [9]). Further, the transfection efficiency with hAMSC donor 1 [5] (setting [7]) is 0.87 ± 0.21; in the test on hAMSC donor 1 [5] (setting [8]) it was 1.78 ± 1.5; with hAMSC donor 1 [5] (setting [9]), 0.955 ± 0.19; in the test with hAMSC donor 2 [6] (setting [7]) it was 1.11 ± 0.43; with hAMSC donor 2 [6] (setting [8]) it was 1.14 ± 0.19; with hAMSC donor 2 [6] (setting [9]), 1.03 ± 0.18.

As for `Nc1ccc(O)c(C(=O)O)c1` [Mesalamine], the “Hoechst total cell count ratio” value with hAMSC donor 1 [1] (setting [7]) amounted to 0.959 ± 0.075; in the test with hAMSC donor 1 [1] (setting [8]) it was 1.28 ± 0.034; in the test with hAMSC donor 1 [1] (setting [9]), 1.17 ± 0.1; in the test on hAMSC donor 2 [2] (setting [7]) it was 1.28 ± 0.15; with hAMSC donor 2 [2] (setting [8]) it was 0.841 ± 0.086; with hAMSC donor 2 [2] (setting [9]), 0.989 ± 0.035. Further, the transgenic luciferase activity in the test on hAMSC donor 1 [3] (setting [8]) came out at 0.257 ± 0.073; with hAMSC donor 1 [3] (setting [9]), 1.06 ± 0.23; with hAMSC donor 2 [4] (setting [7]), 1.27 ± 0.12; in the test with hAMSC donor 2 [4] (setting [8]), 0.93 ± 0.13; in the test with hAMSC donor 2 [4] (setting [9]) it was 0.77 ± 0.28. The transfection efficiency in the test with hAMSC donor 1 [5] (setting [7]) turned out to be 0.68 ± 0.31; in the test on hAMSC donor 1 [5] (setting [8]) it was 0.971 ± 0.29; in the test with hAMSC donor 1 [5] (setting [9]), 0.571 ± 0.11; with hAMSC donor 2 [6] (setting [7]), 0.747 ± 0.052; in the test with hAMSC donor 2 [6] (setting [8]) it was 1.4 ± 0.18; in the test with hAMSC donor 2 [6] (setting [9]), 1.12 ± 0.23.

As for `CN1CCN(C2=Nc3ccccc3Oc3ccc(Cl)cc32)CC1` [Loxapine succinate], the “Hoechst total cell count ratio” value is 1.06 ± 0.1 in the test with hAMSC donor 1 [1] (setting [7]); 1.16 ± 0.12 in the test on hAMSC donor 1 [1] (setting [8]); 1.04 ± 0.19 in the test with hAMSC donor 1 [1] (setting [9]); 0.735 ± 0.076 in the test with hAMSC donor 2 [2] (setting [7]); 1.07 ± 0.048 in the test with hAMSC donor 2 [2] (setting [8]); 1.38 ± 0.16 with hAMSC donor 2 [2] (setting [9]). In addition, the transgenic luciferase activity in the test on hAMSC donor 1 [3] (setting [7]) came to 0.582 ± 0.24; with hAMSC donor 1 [3] (setting [8]) it was 1.26 ± 0.9; with hAMSC donor 2 [4] (setting [7]) it was 0.758 ± 0.5; in the test on hAMSC donor 2 [4] (setting [8]), 1.06 ± 0.28; in the test on hAMSC donor 2 [4] (setting [9]), 0.598 ± 0.1. The transfection efficiency in the test with hAMSC donor 1 [5] (setting [7]) stood at 1.47 ± 0.68; in the test with hAMSC donor 1 [5] (setting [8]) it was 1.15 ± 0.37; in the test on hAMSC donor 1 [5] (setting [9]), 0.806 ± 0.42; in the test on hAMSC donor 2 [6] (setting [7]), 1.49 ± 0.15; with hAMSC donor 2 [6] (setting [8]) it was 1.21 ± 0.27; in the test with hAMSC donor 2 [6] (setting [9]) it was 0.964 ± 0.22.

In the case of `CN(C)c1nc(N(C)C)nc(N(C)C)n1` [Altretamine], the “Hoechst total cell count ratio” value is 1.22 ± 0.2 in the test with hAMSC donor 1 [1] (setting [7]); 1.09 ± 0.16 in the test with hAMSC donor 1 [1] (setting [8]); 1.34 ± 0.38 in the test on hAMSC donor 1 [1] (setting [9]); 1.15 ± 0.081 with hAMSC donor 2 [2] (setting [7]); 1.26 ± 0.064 in the test on hAMSC donor 2 [2] (setting [8]); 1.42 ± 0.074 with hAMSC donor 2 [2] (setting [9]). The transgenic luciferase activity with hAMSC donor 1 [3] (setting [8]) stood at 0.83 ± 0.11; in the test with hAMSC donor 1 [3] (setting [9]), 0.504 ± 0.055; with hAMSC donor 2 [4] (setting [7]), 0.66 ± 0.1; in the test with hAMSC donor 2 [4] (setting [8]), 0.602 ± 0.096; with hAMSC donor 2 [4] (setting [9]), 0.581 ± 0.14. The transfection efficiency with hAMSC donor 1 [5] (setting [7]) was 0.781 ± 0.093; in the test with hAMSC donor 1 [5] (setting [8]) it was 1.22 ± 0.25; with hAMSC donor 1 [5] (setting [9]), 0.954 ± 0.41; in the test with hAMSC donor 2 [6] (setting [7]) it was 0.916 ± 0.039; in the test with hAMSC donor 2 [6] (setting [8]), 1.03 ± 0.2; with hAMSC donor 2 [6] (setting [9]), 0.739 ± 0.072.

In the case of `NC(=O)c1cnccn1` [Pyrazinamide], the “Hoechst total cell count ratio” value in the test with hAMSC donor 1 [1] (setting [7]) came to 1.02 ± 0.2; with hAMSC donor 1 [1] (setting [8]), 1.04 ± 0.1; in the test with hAMSC donor 1 [1] (setting [9]), 0.925 ± 0.073; with hAMSC donor 2 [2] (setting [7]), 1.14 ± 0.18; in the test with hAMSC donor 2 [2] (setting [8]) it was 1.09 ± 0.096; with hAMSC donor 2 [2] (setting [9]), 1.33 ± 0.072. Further, the transgenic luciferase activity in the test with hAMSC donor 1 [3] (setting [8]) stood at 0.209 ± 0.07; with hAMSC donor 1 [3] (setting [9]), 1.63 ± 0.34; in the test on hAMSC donor 2 [4] (setting [7]), 0.734 ± 0.089; with hAMSC donor 2 [4] (setting [8]), 0.739 ± 0.16; in the test on hAMSC donor 2 [4] (setting [9]), 0.552 ± 0.11. Moreover, the transfection efficiency is 1.42 ± 0.26 in the test with hAMSC donor 1 [5] (setting [7]); 1.39 ± 0.49 in the test on hAMSC donor 1 [5] (setting [8]); 1.2 ± 0.41 in the test with hAMSC donor 1 [5] (setting [9]); 0.795 ± 0.18 in the test on hAMSC donor 2 [6] (setting [7]); 1.22 ± 0.049 in the test on hAMSC donor 2 [6] (setting [8]); 0.905 ± 0.19 with hAMSC donor 2 [6] (setting [9]).

With `CC(C)C[C@@H](NC(=O)OCC1c2ccccc2-c2ccccc21)C(=O)O` [N-Fmoc-D-leucine], the “Hoechst total cell count ratio” value was 1.19 ± 0.1 in the test with hAMSC donor 1 [1] (setting [7]); 1.19 ± 0.088 in the test on hAMSC donor 1 [1] (setting [8]); 1.25 ± 0.07 with hAMSC donor 1 [1] (setting [9]); 1.48 ± 0.24 with hAMSC donor 2 [2] (setting [7]); 1.16 ± 0.15 with hAMSC donor 2 [2] (setting [8]); 1.29 ± 0.19 in the test on hAMSC donor 2 [2] (setting [9]). Further, the transgenic luciferase activity with hAMSC donor 1 [3] (setting [8]) was 0.658 ± 0.72; in the test on hAMSC donor 1 [3] (setting [9]) it was 0.756 ± 0.3; with hAMSC donor 2 [4] (setting [7]), 0.588 ± 0.12; in the test with hAMSC donor 2 [4] (setting [8]) it was 0.713 ± 0.031; in the test with hAMSC donor 2 [4] (setting [9]), 0.49 ± 0.029. For the same compound, the transfection efficiency with hAMSC donor 1 [5] (setting [7]) came to 0.961 ± 0.18; with hAMSC donor 1 [5] (setting [8]), 1.6 ± 0.48; in the test on hAMSC donor 1 [5] (setting [9]) it was 0.931 ± 0.14; in the test with hAMSC donor 2 [6] (setting [7]), 1.02 ± 0.082; in the test on hAMSC donor 2 [6] (setting [8]), 1.17 ± 0.087; with hAMSC donor 2 [6] (setting [9]) it was 0.809 ± 0.083.

For the compound `CCC1(c2ccccc2)C(=O)NCNC1=O` [Primidone], the “Hoechst total cell count ratio” value came to 1.16 ± 0.069 in the test on hAMSC donor 1 [1] (setting [7]); 1.25 ± 0.02 in the test with hAMSC donor 1 [1] (setting [8]); 1.36 ± 0.065 with hAMSC donor 1 [1] (setting [9]); 1.1 ± 0.24 in the test on hAMSC donor 2 [2] (setting [7]); 1.16 ± 0.077 in the test on hAMSC donor 2 [2] (setting [8]); 1.24 ± 0.21 in the test on hAMSC donor 2 [2] (setting [9]). Also, the transgenic luciferase activity in the test with hAMSC donor 1 [3] (setting [8]) came out at 0.33 ± 0.14; with hAMSC donor 1 [3] (setting [9]), 0.817 ± 0.3; with hAMSC donor 2 [4] (setting [7]) it was 0.935 ± 0.26; with hAMSC donor 2 [4] (setting [8]), 0.761 ± 0.071; in the test with hAMSC donor 2 [4] (setting [9]), 0.616 ± 0.2. Moreover, the transfection efficiency in the test with hAMSC donor 1 [5] (setting [7]) was 0.975 ± 0.17; in the test on hAMSC donor 1 [5] (setting [8]) it was 1.15 ± 0.53; with hAMSC donor 1 [5] (setting [9]), 0.834 ± 0.12; with hAMSC donor 2 [6] (setting [7]), 1.09 ± 0.071; with hAMSC donor 2 [6] (setting [8]) it was 1.12 ± 0.11; in the test with hAMSC donor 2 [6] (setting [9]), 1.04 ± 0.27.
